The text below walks through data of patent US20140011978A1 (EPFL TTO, published 2014).

Chains of the proteins cited; added tags and fusions are not shown. Residues count along the entry.
UniProt P02769, 25-607 limits assumed: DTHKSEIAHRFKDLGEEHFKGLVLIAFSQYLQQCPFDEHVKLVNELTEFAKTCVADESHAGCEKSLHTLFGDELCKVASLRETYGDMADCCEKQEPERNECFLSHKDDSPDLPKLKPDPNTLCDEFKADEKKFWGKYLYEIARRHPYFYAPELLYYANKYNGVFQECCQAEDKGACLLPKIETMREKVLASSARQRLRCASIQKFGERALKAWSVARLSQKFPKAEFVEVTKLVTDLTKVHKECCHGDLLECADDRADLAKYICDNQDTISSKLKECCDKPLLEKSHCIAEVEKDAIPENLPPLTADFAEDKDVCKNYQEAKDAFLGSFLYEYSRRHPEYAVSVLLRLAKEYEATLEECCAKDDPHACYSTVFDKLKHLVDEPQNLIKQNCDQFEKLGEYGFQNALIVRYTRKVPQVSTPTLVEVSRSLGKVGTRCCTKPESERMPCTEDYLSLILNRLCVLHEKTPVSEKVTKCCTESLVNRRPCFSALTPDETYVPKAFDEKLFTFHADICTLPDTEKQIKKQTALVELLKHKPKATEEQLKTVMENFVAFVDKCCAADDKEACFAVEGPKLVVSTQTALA

One test concerns the target EGF. Kind of test: ELISA: morphogen coated, fragment in solution, A450 (methods analogous to Example 3). In general terms: An ELISA detects its analyte on a solid surface through an enzyme-linked reagent.
In a further test the target is T1, BSA (bovine, UniProt P02769).
T1 construct: negative control; also called bovine serum albumin
Kind of test: ELISA: BSA coated as control, fragment in solution, A450 (methods analogous to Example 3).

B1: FN III9*-10-TNC III1-5 (other)
chain: NQEQVSPLAGGLDSPTGIDFSDITANSFTVHWIAPRATITGYRIRHHPEHFSGRPREDRVPHSRNSITLTNLTPGTEYVVSIVALNGREESPPLIGQQSTVSDVPRDLEVVAATPTSLLISWDAPAVTVRYYRITYGETGGNSPVQEFTVPGSKSTATISGLKPGVDYTITVYAVTGRGDSPASSKPISINYRTGGSEVSPPKDLVVTEVTEETVNLAWDNEMRVTEYLVVYTPTHEGGLEMQFRVPGDQTSTIIQELEPGVEYFIRVFAILENKKSIPVSARVATYLPAPEGLKFKSIKETSVEVEWDPLDIAFETWEIIFRNMNKEDEGEITKSLRRPETSYRQTGLAPGQEYEISLHIVKNNTRGPGLKRVTTTRLDAPSQIEVKDVTDTTALITWFKPLAEIDGIELTYGIKDVPGDRTTIDLTEDENQYSIGNLKPDTEYEVSLISRRGDMSSNPAKETFTTGLDAPRNLRRVSQTDNSITLEWRNGKAAIDSYRIKYAPISGGDHAEVDVPKSQQATTKTTLTGLRPGTEYGIGVSAVKEDKESNPATINAATELDTPKDLQVSETAETSLTLLWKTPLAKFDRYRLNYSLPTGQWVGVQLPRNTTSYVLRGLEPGQEYNVLLTAEKGRHKSKPARVKASTEQAGGGSHHHHHH
notes: The two are tied by name only; also called TG-FN III9*-10, TNC III1-5
Turning to B1, the binding result with EGF and with BSA was “no binding” each time.
